{"source": "patent US20140186354A1", "about": "(published 2014)", "binders": {"B1": {"name": "anti-HER3/HER4 antibody M-05-74 (antibody, V domains shown)", "VH": "QVQLQQSGAELAKPGASVKMSCKTSGYTLTDYWIHWVKQRPGQGLEWIGYINPYTGYTESNQKFKDKATLTADKSSNTAYIQLSSLTSEDSAVYYCARPYYYGDYWGQGTTLTVSS", "VL": "QIVLTQSPAIMSASPGERVTITCSASSSVSYMHWFQQKPGTSPKLLIYSTSNLASGVPARFSGSGSGTSYSLTISRMEAEDAATYYCQQRSSYPFTFGSGTKLEIK", "notes": "Murine monoclonal antibody from hybridoma (supernatant or purified full length); also called M-074; M-5-74"}}, "target": "T1, TtSlyD-FKBP-Her3", "T1 sequence": "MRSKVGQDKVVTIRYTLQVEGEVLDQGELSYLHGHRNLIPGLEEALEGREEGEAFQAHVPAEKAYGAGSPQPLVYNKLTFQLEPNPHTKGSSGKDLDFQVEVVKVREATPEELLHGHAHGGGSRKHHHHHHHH", "test": "SPR Biacore 4000 kinetic screening", "note": "Results are given in words; binding and its absence hold for the method and conditions named. Some entries that bind do so weakly or less than the wild type."}
{"binder": "B1", "values": [{"measurement": "binding", "result": "binds"}]}
